# Results from paper PMC5871759.
# The chains behind the UniProt entries cited, without tags or fusion partners.
# UniProt Q8IZD2: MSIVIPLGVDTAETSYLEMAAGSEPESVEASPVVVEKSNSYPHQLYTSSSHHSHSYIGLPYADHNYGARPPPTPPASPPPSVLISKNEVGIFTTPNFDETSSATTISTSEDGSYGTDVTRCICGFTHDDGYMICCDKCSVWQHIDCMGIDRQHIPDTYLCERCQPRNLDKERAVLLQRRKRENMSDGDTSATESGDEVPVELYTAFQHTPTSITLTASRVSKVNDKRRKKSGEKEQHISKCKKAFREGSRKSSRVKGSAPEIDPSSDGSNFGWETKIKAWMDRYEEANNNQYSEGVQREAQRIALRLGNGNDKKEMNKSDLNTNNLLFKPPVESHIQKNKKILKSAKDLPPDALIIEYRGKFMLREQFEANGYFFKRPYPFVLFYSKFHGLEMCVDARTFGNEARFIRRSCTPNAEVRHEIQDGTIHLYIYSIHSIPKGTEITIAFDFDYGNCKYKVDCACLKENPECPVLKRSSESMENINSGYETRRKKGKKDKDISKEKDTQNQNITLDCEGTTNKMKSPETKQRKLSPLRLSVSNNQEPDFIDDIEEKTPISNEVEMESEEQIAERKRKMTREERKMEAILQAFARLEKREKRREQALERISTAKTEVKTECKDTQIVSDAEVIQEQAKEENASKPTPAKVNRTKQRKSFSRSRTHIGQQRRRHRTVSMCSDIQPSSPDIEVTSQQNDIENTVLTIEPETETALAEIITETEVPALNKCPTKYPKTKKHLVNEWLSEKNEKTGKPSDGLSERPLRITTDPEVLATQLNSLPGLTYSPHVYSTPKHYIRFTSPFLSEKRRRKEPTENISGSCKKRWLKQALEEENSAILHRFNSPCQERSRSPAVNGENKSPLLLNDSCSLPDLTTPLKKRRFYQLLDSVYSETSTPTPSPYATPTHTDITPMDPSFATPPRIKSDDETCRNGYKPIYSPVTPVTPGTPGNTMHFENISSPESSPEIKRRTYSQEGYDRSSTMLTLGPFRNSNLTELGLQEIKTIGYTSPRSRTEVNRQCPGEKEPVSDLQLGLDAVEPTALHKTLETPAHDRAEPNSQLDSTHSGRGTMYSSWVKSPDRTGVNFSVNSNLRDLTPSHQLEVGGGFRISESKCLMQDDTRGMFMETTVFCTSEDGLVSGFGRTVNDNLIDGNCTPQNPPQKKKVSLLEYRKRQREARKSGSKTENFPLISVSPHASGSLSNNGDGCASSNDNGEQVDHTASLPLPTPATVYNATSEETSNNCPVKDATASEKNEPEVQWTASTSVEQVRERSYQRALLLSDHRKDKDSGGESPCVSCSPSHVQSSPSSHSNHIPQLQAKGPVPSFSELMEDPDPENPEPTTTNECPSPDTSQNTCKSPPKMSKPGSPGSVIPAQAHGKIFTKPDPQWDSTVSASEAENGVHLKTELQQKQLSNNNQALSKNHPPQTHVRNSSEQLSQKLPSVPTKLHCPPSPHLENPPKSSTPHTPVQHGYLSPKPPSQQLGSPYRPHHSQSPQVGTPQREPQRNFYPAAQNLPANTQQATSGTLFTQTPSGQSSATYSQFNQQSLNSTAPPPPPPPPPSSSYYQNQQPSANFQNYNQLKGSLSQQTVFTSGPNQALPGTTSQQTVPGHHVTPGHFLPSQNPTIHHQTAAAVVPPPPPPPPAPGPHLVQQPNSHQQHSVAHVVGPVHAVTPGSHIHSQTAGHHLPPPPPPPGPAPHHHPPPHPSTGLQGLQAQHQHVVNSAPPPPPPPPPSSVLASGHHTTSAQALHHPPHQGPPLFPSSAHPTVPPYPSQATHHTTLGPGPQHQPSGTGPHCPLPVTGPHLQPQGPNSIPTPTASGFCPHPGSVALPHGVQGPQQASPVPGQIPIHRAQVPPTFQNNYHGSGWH
# UniProt Q9UNE7: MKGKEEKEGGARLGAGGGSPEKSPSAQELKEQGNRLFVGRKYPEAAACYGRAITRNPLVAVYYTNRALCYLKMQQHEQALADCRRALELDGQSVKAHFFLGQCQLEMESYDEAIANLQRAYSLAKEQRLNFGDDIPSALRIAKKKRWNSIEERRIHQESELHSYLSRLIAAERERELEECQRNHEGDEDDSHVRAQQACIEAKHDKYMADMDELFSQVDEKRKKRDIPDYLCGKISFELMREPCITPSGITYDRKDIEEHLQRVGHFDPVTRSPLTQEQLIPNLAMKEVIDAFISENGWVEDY
# Like-named read-outs stand apart in the source and are kept apart here. These are yes or no findings as the source states them, for the method shown. Binding seen in cells or lysates may run through a third protein. Some results given as binding are weak or reduced against the parent protein; the word gives no strength. For some assays here: Where a sequence is shown, tags or fusion partners need not be part of it.
# Experiments:
# [1] = biological target: FLAG-tagged MLL5 (human) (UniProt Q8IZD2); assay: co-IP; HEK293T cotransfected with tagged plasmids, whole-cell extracts 48 h after transfection; lysis buffer 1% NP-40, 20 mM HEPES, 20 mM KCl, 150 mM NaCl, 5 mM EDTA, pH 7.4; Protein-G Sepharose with anti-FLAG or anti-V5, 4 °C; in Fig. 6b also with MLL5-HA plasmid (0, 1000, 3000 ng)
# [2] = biological target: FLAG-tagged MLL5 (human) (UniProt Q8IZD2); assay: as above; remark: listed apart in the source
Molecule,binding [1],binding [2]
V5-tagged STUB1 (from UniProt Q9UNE7 1-303) (enzyme),binds,–
"RIG-I-HA (protein, UniProt O95786 1-925) MTTEQRRSLQAFQDYIRKTLDPTYILSYMAPWFREEEVQYIQAEKNNKGPMEAATLFLKFLLELQEEGWFRGFLDALDHAGYSGLYEAIESWDFKKIEKLEEYRLLLKRLQPEFKTRIIPTDIISDLSECLINQECEEILQICSTKGMMAGAEKLVECLLRSDKENWPKTLKLALEKERNKFSELWIVEKGIKDVETEDLEDKMETSDIQIFYQEDPECQNLSENSCPPSEVSDTNLYSPFKPRNYQLELALPAMKGKNTIICAPTGCGKTFVSLLICEHHLKKFPQGQKGKVVFFANQIPVYEQQKSVFSKYFERHGYRVTGISGATAENVPVEQIVENNDIIILTPQILVNNLKKGTIPSLSIFTLMIFDECHNTSKQHPYNMIMFNYLDQKLGGSSGPLPQVIGLTASVGVGDAKNTDEALDYICKLCASLDASVIATVKHNLEELEQVVYKPQKFFRKVESRISDKFKYIIAQLMRDTESLAKRICKDLENLSQIQNREFGTQKYEQWIVTVQKACMVFQMPDKDEESRICKALFLYTSHLRKYNDALIISEHARMKDALDYLKDFFSNVRAAGFDEIEQDLTQRFEEKLQELESVSRDPSNENPKLEDLCFILQEEYHLNPETITILFVKTRALVDALKNWIEGNPKLSFLKPGILTGRGKTNQNTGMTLPAQKCILDAFKASGDHNILIATSVADEGIDIAQCNLVILYEYVGNVIKMIQTRGRGRARGSKCFLLTSNAGVIEKEQINMYKEKMMNDSILRLQTWDEAVFREKILHIQTHEKFIRDSQEKPKPVPDKENKKLLCRKCKALACYTADVRVIEECHYTVLGDAFKECFVSRPHPKPKQFSSFEKRAKIFCARQNCSHDWGIHVKYKTFEIPVIKIESFVVEDIATGVQTLYSKWKDFHFEKIPFDPAEMSK",–,binds
